Results published in PubChem BioAssay AID2551 (National Center for Advancing Translational Sciences (NCATS), 2010).
Hit rate of the full screen: of about 310,000 compounds, about 17,000 (5.5%) were called active. Inconclusive results, whose numbers are uncertain, are shown with a selection of clear calls. The call rests on the fitted dose curve; in most records, active means well fitted inhibition curve with a large enough effect; inconclusive means small, poorly fitted or top-dose-only effect, or effect the other way; inactive means no such curve, though single readings can be large or run the other way. Potencies of inconclusive entries are doubtful fits and often do not repeat.

Protein sequences, listed by entry. Tags and fused reporters are not part of them. Lines headed by an entry give the natural chain unless they say otherwise; changes in a name come on top.
UniProt P51450: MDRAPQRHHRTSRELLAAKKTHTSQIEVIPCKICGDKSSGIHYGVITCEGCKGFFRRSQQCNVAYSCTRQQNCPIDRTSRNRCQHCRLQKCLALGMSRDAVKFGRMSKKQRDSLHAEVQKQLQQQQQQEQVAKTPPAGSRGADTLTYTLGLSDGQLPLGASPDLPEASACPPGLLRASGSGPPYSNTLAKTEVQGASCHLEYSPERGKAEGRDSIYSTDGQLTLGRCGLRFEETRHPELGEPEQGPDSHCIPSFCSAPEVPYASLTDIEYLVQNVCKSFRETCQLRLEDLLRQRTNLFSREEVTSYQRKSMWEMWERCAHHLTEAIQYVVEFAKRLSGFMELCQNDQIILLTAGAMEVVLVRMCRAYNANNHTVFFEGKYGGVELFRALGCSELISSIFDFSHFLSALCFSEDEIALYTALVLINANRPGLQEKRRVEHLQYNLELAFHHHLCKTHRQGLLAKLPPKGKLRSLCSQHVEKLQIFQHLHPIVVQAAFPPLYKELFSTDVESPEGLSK

The compounds below were run against Nuclear receptor ROR-gamma (Mus musculus) (UniProt P51450) (assay: qHTS for inhibitors of ROR gamma transcriptional activity). Conditions: Drosophila S2 Gal4-RORgamma UAS-luciferase reporter, 20 h; activity change, negative = inhibition: at 53.6 µM (top of the series).
Method in brief: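 Stably transfected Drosophila Schneider cells are the test system, with ROR gamma fused to Gal4 and luciferase under UAS control; luminescence is read after 20 hr of 700 uM copper sulfate induction at ambient temperature.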
Further: nearly all actives have a fitted effect of over 60% in size.
On the % scale 0 is the no-effect control and ±100 the full control effect; potency means the concentration at half of the fitted maximal effect.

SMILES	Potency	activity change, negative = inhibition
CC1=CC(C)(C)Nc2ccccc21	inconclusive: 20 µM [inhibitor, single point]	
CCS(=O)(=O)N1CCC(N2CCN(c3ccccc3)CC2)CC1		inactive: 5.83%
COc1ccccc1N1C(C)=CC(=C(C#N)c2nc3ccccc3s2)C=C1C	active: 7.08 µM	
c1ccc(Nc2nc(-c3cccs3)cs2)nc1	inconclusive: 35.5 µM [inhibitor, single point]	
O=C(O)C1Cc2ccccc2-c2ccccc2C1		inactive: 18%
N#C/C(=C(/O)CCl)c1nc2ccccc2[nH]1	active: 5.01 µM	
COCCn1c(C23CC4CC(CC(C4)C2)C3)n[nH]c1=S	active: 3.98 µM	
COc1ccc(/C=N/NC(=O)c2nn(-c3ccccc3)c(=O)c3c(N)scc23)cc1	inconclusive: 6.31 µM [inhibitor, full curve]	
CSc1nnc2ccc(-c3cccs3)nn12		inactive: -11%
CCOC(=O)C(=O)C1(C(=O)OCC)Oc2cc(OC)cc(OC)c2C(=O)C1c1ccccc1 (stereo not drawn)		inactive: 19%
Cn1ncc([N+](=O)[O-])c1C(=O)Nc1ccc(-c2nc3ccccc3[nH]2)cc1	inconclusive: 7.94 µM [activator, partial curve]	
CCOc1ccc(CN=C(N)N=C(N)N)cc1Cl		inactive: 1.9%
CC(=O)c1ccc(NC(=S)N(Cc2ccccc2)C(C)C2CC2)cc1 (stereo not drawn)	inconclusive: 11.2 µM [inhibitor, single point]	
O=c1[nH]c(CN2CCN(Cc3ccc4c(c3)OCO4)CC2)nc2sc3c(c12)CCC3		inactive: -0.954%
Cc1ccc(C2=Nc3ccccc3N=C(C(Cl)Cl)C2)cc1	active: 11.2 µM	
Cn1c(=O)c2c(-c3ccccc3)n(-n3cnnc3)cc2n(C)c1=O	active: 17.8 µM	
CC(CCc1ccccc1)NC(=O)CNc1cccc([N+](=O)[O-])c1 (stereo not drawn)	inconclusive: 12.6 µM [activator, single point]	
O=C(N/N=C/c1cccnc1)c1ccc(CN2c3cccc4cccc(c34)S2(=O)=O)cc1		inactive: 1.15%
COc1ccc(CNC(=S)NCc2ccc(OC)cc2)cc1	active: 12.6 µM	
O=C1c2cccc3cccc(c23)C(=O)N1c1nncs1		inactive: -27.2%
COCCC(=O)N1CCC(Oc2ccc(C(=O)NC3Cc4ccccc4C3)cc2)CC1		inactive: -1.02%
Cc1cc(NC(=O)/C=C/c2ccccc2Cl)n(-c2nc3ccccc3[nH]2)n1	active: 1.78 µM	
CC(C)c1ccccc1NC(=O)Nc1ccc(F)cc1F	inconclusive: 14.1 µM [activator, single point]	
Cc1ccc2cccc(OC(=O)c3ccc4c(c3)OCCO4)c2n1	inconclusive: 17.8 µM [inhibitor, single point]	
Cc1ccccc1-n1ncc2c1CC(C)(C)CC2NC(=O)CSc1ccncc1 (stereo not drawn)	inconclusive: 12.6 µM [activator, single point]	
CCNC(=S)/N=C(/Nc1ccc(OC)cc1)Nc1nc(C)cc(C)n1	active: 1.78 µM	

SMILES	Potency	activity change, negative = inhibition
Cc1sc(NC(=O)c2ccco2)c(C(Nc2ccccn2)c2ccccc2)c1C (stereo not drawn)	inconclusive: 8.91 µM [activator, partial curve]	
CCN(CC)S(=O)(=O)N1CCC(C(=O)NCC2COc3ccccc3O2)CC1 (stereo not drawn)	inconclusive: 3.55 µM [activator, partial curve]	
O=[N+]([O-])c1ccc(C[n+]2cc(-c3ccccc3)n3c2CCCCC3)cc1		inactive: -2.69%
CCOC(=O)C1CCCN(CCC(=O)Nc2ccc(Br)cc2)C1 (stereo not drawn)		inactive: -6.99%
COc1ccccc1Nc1nc(-c2sc(NC(=O)c3cccc(Cl)c3)nc2C)cs1	inconclusive: 17.8 µM [inhibitor, single point]	
COc1cc(C(=O)NCC(=O)N/N=C/c2ccco2)cc(OC)c1OC		inactive: -22.5%
Cc1sc(NC(=O)Cc2ccc3c(c2)OCO3)nc1-c1ccc2c(c1)CCN2C(=O)c1ccccc1F	inconclusive: 10 µM [activator, partial curve]	
COc1ccc(CC(=O)N2N=C(C)CC2(O)C(F)(F)F)cc1OC (stereo not drawn)	inconclusive: 8.91 µM [inhibitor, partial curve, poor fit]	
COc1cc(/C=N/NC(=O)C23CC4CC(CC(C4)C2)C3)cc(Br)c1O		inactive: 7.88%
CC1CCc2c(nc3ncnn3c2Nc2ccc(OC(F)(F)F)cc2)C1 (stereo not drawn)	inconclusive: 15.8 µM [inhibitor, single point]	
N#C/C(=C\C1=C(N2CCOCC2)C(=C\c2ccc(Cl)cc2)/CC1)C(=O)Nc1ccccc1F	inconclusive: 6.31 µM [activator, single point]	
CC(=O)Nc1cccc(C(=O)N2CCN(Cc3ccccc3)CC2)c1		inactive: -13.3%
Cc1ccccc1Nc1nnc(SCC(=O)c2c(N)n(C)c(=O)n(C)c2=O)s1		inactive: 38.8%
COc1cc(C(=O)NNC(=S)NC(=O)/C=C/c2ccccc2)cc(OC)c1OC	active: 2.82 µM	
CCc1sc(C(=O)NC2CCN(C)CC2)cc1Br		inactive: 27.2%
CC[C@H](C)[C@H](NC(=O)[C@H](Cc1ccc(O)cc1)NC(=O)CNC(=O)[C@@H]1CCCN1C(=O)[C@H](CC(=O)O)NC(=O)[C@@H](N)CS)C(=O)NCC(=O)N[C@@H](CO)C(=O)N[C@@H](CCCN=C(N)N)C(N)=O		inactive: 0.479%
C=CCc1ccc(OCc2ccc(C(=O)O)o2)c(OC)c1	inconclusive: 8.91 µM [inhibitor, partial curve]	
CCOC(=O)c1nn(-c2ccc(C)cc2)cc1O	inconclusive: 3.98 µM [activator, single point]	
Nc1nc2c(ncn2C2OC(CO)CC2O)c(=O)[nH]1 (stereo not drawn)	active: 20 µM	
CCn1c(SCC(=O)N/N=C/c2ccccc2OCC(=O)O)nnc1-c1ccc(C(C)(C)C)cc1	inconclusive: 7.08 µM [inhibitor, full curve, poor fit]	
Cc1c(-c2ccc(Br)cc2)nc2ccccn12	active: 10 µM	
CCOC(=O)C1CN(S(=O)(=O)c2ccc(C)cc2)c2cc(S(=O)(=O)CC)ccc2O1 (stereo not drawn)		inactive: -31.1%
COc1ccccc1OCc1cc(C(=O)N(C)CCC2CCCCO2)no1 (stereo not drawn)	inconclusive: 3.55 µM [activator, partial curve]	
CCc1nnc(NC(=O)CCC(=O)O)s1	inconclusive: 6.31 µM [activator, single point]	
CCCCCCN(C(=O)CCCCCN1C(=O)NC(c2ccc(-c3ccccc3)cc2)C(C(=O)OCc2ccccc2)=C1C)C(C(=O)NCCCC)c1ccc(O)c(C(=O)OC)c1 (stereo not drawn)	inactive	
COc1ccccc1NC(=S)NCCc1c[nH]c2ccccc12	active: 14.1 µM	

Filtered by structure: the compounds so far containing an NH in an aromatic ring (seven)
SMILES	Potency	activity change, negative = inhibition
N#C/C(=C(/O)CCl)c1nc2ccccc2[nH]1	active: 5.01 µM	
COCCn1c(C23CC4CC(CC(C4)C2)C3)n[nH]c1=S	active: 3.98 µM	
Cn1ncc([N+](=O)[O-])c1C(=O)Nc1ccc(-c2nc3ccccc3[nH]2)cc1	inconclusive: 7.94 µM [activator, partial curve]	
O=c1[nH]c(CN2CCN(Cc3ccc4c(c3)OCO4)CC2)nc2sc3c(c12)CCC3		inactive: -0.954%
Cc1cc(NC(=O)/C=C/c2ccccc2Cl)n(-c2nc3ccccc3[nH]2)n1	active: 1.78 µM	
Nc1nc2c(ncn2C2OC(CO)CC2O)c(=O)[nH]1 (stereo not drawn)	active: 20 µM	
COc1ccccc1NC(=S)NCCc1c[nH]c2ccccc12	active: 14.1 µM	

Remaining list, next part.

SMILES	Potency	activity change, negative = inhibition
COc1ccc(C(=O)NNC(=S)NC(=O)/C=C/c2cccs2)cc1	inconclusive: 20 µM [inhibitor, single point]	
CCCCCCCCCCCCC[N+](C)(C)Cc1ccccc1	inconclusive: 35.5 µM [inhibitor, single point]	
Cc1cc(NC(=O)C(C)SCC(=O)OCc2c(Cl)cccc2Cl)no1 (stereo not drawn)	inconclusive: 7.94 µM [activator, partial curve, poor fit]	
Cn1c(-c2ccc3c(c2)OCO3)cc(=O)c2ccccc21	inactive	
CC(C)(C)c1ccc(C(=O)Nc2ccc(C=C(C#N)C#N)cc2)cc1	active: 5.01 µM	
C[C@@H](NC(=O)c1coc(=O)c(Br)c1)c1ccccc1	inconclusive: 35.5 µM [inhibitor, single point]	
CCOc1ccc(C(C)=O)cc1CN1C(=O)NC(C)(C2CC2)C1=O (stereo not drawn)		inactive: 4.13%
CCc1cccc(NC(=O)Cn2c(=O)c3cccn3c3ccccc32)c1		inactive: -38.3%
O=C(Nc1ccc2c(c1)OCCO2)c1ccc(NC(=O)C2CCCO2)cc1 (stereo not drawn)	inconclusive: 10 µM [inhibitor, single point]	
CCOc1ccc(NC(=O)c2ccccc2NS(=O)(=O)c2ccc(F)cc2)c([N+](=O)[O-])c1	inconclusive: 35.5 µM [activator, single point]	
FC(F)(F)c1cc(Nc2ccccc2)nc(-c2ccccn2)n1	active: 2 µM	
O=C(N/N=C/c1cc2c(cc1Br)OCO2)c1cccnc1		inactive: -1.8%
O=C(CSc1nc2ccccc2c(=O)n1-c1ccc(F)cc1)Nc1ccc(Cl)c(S(=O)(=O)N2CCOCC2)c1	inconclusive: 1.58 µM [activator, partial curve]	
COC(=O)c1c(NC(=O)Cc2ccccc2)sc2c1CCN(C(C)C)C2		inactive: 4.25%
CCc1cc2c(=O)c(-c3nc4ccccc4n3C)c(C)oc2c(CN2CCN(C)CC2)c1O		inactive: 4.77%
O=C1c2cccc(OCc3ccc(F)cc3)c2CCN1Cc1ccccc1	inconclusive: 25.1 µM [activator, single point]	
O=C(NNc1nc2ccccc2s1)c1ccc(F)cc1	active: 0.562 µM	
NC(=S)NNC(=O)COc1ccccc1O	inconclusive: 35.5 µM [inhibitor, single point]	
C=CCOc1ccccc1/C=N/NC(=O)c1ccc(Cl)cc1Cl	inconclusive: 10 µM [inhibitor, partial curve]	
O=C(c1ccncc1)N1CCC2(CC1)CCN(c1ccccc1)CC2		inactive: -4.36%
Cn1cnnc1SCC(=O)Nc1ccc(OCc2ccccc2)cc1		inactive: 17.2%
Cc1ccn(-c2n[nH]c(C)c2[N+](=O)[O-])n1	active: 12.6 µM	
COc1ccc2c(C)cc(N3CCN(c4ccc(F)cc4)CC3)nc2c1		inactive: 19.8%
Clc1ccc(OCCN2CCN(c3ncnc4sccc34)CC2)cc1	inconclusive: 8.91 µM [inhibitor, partial curve]	
O=C(CCC(=O)c1ccc[nH]1)c1ccc(Cl)cc1	inconclusive: 0.562 µM [activator, full curve, poor fit]	
COc1ccc(CC(=O)Nc2cccc(-c3nnc(-c4cccc(C)c4)o3)c2)cc1OC	inconclusive: 35.5 µM [inhibitor, single point]	
